In publication PMC7892343:
No constants are given. Whether binding was seen depends on the method and setting. In cells and extracts the contact can be indirect. Some results given as binding are weak or reduced against the parent protein; the word gives no strength. For some assays here: Tags and fused reporters may be left off the sequences shown.

Chains of the proteins cited; added tags and fusions are not shown. Lines headed by an entry give the natural chain unless they say otherwise; changes in a name come on top. A line that says so, or that is headed by a name, gives the form on record, which may keep a tag or linker. Residues count along the entry.
Flag-PRMT1 catalytic domain (truncated mutant 32-343 aa) (Q99873, residues 50-361): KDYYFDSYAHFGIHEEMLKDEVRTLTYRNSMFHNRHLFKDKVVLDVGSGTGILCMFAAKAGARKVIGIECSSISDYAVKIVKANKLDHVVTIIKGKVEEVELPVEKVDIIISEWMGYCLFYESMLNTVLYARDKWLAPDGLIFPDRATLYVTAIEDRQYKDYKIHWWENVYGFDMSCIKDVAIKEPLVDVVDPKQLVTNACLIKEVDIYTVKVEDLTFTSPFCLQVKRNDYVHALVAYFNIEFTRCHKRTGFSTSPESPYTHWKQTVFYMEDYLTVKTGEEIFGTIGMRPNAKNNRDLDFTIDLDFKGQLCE
Flag-PRMT1 (protein arginine methyltransferase 1) (Q99873-3, form named): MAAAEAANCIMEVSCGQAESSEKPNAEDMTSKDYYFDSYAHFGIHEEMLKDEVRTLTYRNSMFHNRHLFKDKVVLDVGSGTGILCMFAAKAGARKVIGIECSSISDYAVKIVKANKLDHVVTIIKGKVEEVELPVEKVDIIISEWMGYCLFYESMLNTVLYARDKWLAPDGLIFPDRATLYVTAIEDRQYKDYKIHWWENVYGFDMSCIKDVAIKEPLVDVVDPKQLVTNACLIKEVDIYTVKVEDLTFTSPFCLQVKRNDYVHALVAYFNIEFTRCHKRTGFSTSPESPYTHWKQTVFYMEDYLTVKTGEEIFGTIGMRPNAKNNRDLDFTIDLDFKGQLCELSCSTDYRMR

What was measured:
[1] = biological target: T1, Myc-NONO (non-POU domain-containing octamer-binding protein) (human) (UniProt Q15233); assay: co-IP; HEK 293T cells cotransfected with Myc-NONO and Flag-PRMT1 (or Flag-PRMT1 truncations) for 24 h; RIPA lysis buffer (150 mM NaCl, 50 mM Tris-HCl pH 7.4, 1% Nonidet P-40, 1 mM EDTA); anti-Flag or anti-Myc magnetic beads, 2-4 h at 4 °C; western blotting
T1 sequence: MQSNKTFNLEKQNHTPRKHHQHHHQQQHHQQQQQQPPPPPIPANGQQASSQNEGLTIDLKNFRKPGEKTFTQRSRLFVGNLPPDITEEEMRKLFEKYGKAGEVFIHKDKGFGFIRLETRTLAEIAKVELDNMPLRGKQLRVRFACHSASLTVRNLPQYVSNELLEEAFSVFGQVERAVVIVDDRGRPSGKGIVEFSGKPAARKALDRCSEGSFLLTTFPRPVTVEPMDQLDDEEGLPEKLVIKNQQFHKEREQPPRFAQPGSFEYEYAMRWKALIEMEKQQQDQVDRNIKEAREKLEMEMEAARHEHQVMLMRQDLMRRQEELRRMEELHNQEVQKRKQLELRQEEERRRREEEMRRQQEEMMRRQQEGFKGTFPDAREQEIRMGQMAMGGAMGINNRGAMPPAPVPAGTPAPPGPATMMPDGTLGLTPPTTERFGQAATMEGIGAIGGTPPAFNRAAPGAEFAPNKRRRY

[2] = biological target: T2, NONO, endogenous in KM12 and HCT8 colorectal cancer cells (human (endogenous in KM12 and HCT8)) (UniProt Q15233); assay: proximity ligation; Duolink PLA on fixed KM12 and HCT8 cells with anti-NONO and anti-PRMT1 primary antibodies; blank without primary antibody; confocal microscopy
T2 sequence: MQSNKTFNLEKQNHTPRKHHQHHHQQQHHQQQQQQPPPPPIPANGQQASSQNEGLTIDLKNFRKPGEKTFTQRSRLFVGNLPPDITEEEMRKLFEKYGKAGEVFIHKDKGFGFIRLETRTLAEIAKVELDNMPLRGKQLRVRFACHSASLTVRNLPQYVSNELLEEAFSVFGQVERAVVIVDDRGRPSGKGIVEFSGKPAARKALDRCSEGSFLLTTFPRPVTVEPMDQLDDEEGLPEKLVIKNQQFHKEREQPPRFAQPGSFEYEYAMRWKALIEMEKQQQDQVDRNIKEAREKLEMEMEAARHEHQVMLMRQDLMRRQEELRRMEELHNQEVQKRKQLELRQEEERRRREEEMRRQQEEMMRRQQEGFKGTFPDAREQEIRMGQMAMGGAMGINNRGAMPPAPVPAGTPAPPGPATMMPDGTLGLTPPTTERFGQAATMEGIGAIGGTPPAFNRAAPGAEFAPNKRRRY

[3] = biological target: T2, NONO, endogenous in KM12 and HCT8 colorectal cancer cells (human (endogenous in KM12 and HCT8)); assay: co-IP; endogenous proteins, KM12 and HCT8 cell lysates (RIPA buffer); anti-NONO or anti-PRMT1 antibody or isotype-matched IgG overnight at 4 °C, Dynabeads Protein G; western blotting
[4] = biological target: Flag-PRMT1 catalytic domain (truncated mutant 32-343 aa) (human) (UniProt Q99873); assay: co-IP; HEK 293T cells cotransfected with Myc-NONO and Flag-PRMT1 (or Flag-PRMT1 truncations) for 24 h; RIPA lysis buffer (150 mM NaCl, 50 mM Tris-HCl pH 7.4, 1% Nonidet P-40, 1 mM EDTA); anti-Flag or anti-Myc magnetic beads, 2-4 h at 4 °C; western blotting
[5] = biological target: Flag-PRMT1 (protein arginine methyltransferase 1) (human) (UniProt Q99873); assay: as above

Molecule: Flag-PRMT1 (protein arginine methyltransferase 1) (from UniProt Q99873-3 1-353) (enzyme)
- binding [1]: binds

Molecule: PRMT1, endogenous in KM12 and HCT8 colorectal cancer cells (from UniProt Q99873-3 1-353) (enzyme)
- binding [2]: binds
- binding [3]: binds

B1: Myc-NONO (non-POU domain-containing octamer-binding protein) (protein, UniProt Q15233 1-471)
chain: MQSNKTFNLEKQNHTPRKHHQHHHQQQHHQQQQQQPPPPPIPANGQQASSQNEGLTIDLKNFRKPGEKTFTQRSRLFVGNLPPDITEEEMRKLFEKYGKAGEVFIHKDKGFGFIRLETRTLAEIAKVELDNMPLRGKQLRVRFACHSASLTVRNLPQYVSNELLEEAFSVFGQVERAVVIVDDRGRPSGKGIVEFSGKPAARKALDRCSEGSFLLTTFPRPVTVEPMDQLDDEEGLPEKLVIKNQQFHKEREQPPRFAQPGSFEYEYAMRWKALIEMEKQQQDQVDRNIKEAREKLEMEMEAARHEHQVMLMRQDLMRRQEELRRMEELHNQEVQKRKQLELRQEEERRRREEEMRRQQEEMMRRQQEGFKGTFPDAREQEIRMGQMAMGGAMGINNRGAMPPAPVPAGTPAPPGPATMMPDGTLGLTPPTTERFGQAATMEGIGAIGGTPPAFNRAAPGAEFAPNKRRRY
- binding [4]: binds
- binding [5]: binds
